PubChem BioAssay AID1224830, NIAID | 2016
The deposit covers about 18,000 reagents; this is an unselected part. Of all reagents, about 2,900 (16%) were called active. 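Calls are made per well; low scores hint the gene aids the LPS response, high scores that it dampens it.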 Entries without a mark were called inactive. Repeated entries: four replicate wells of each siRNA pool.

- Purpose: 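Host factors that control LPS-induced TNF expression in human macrophages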 (primary screen)
- System: human THP-1 monocytic leukaemia cells, TNF dual-luciferase reporter clone, PMA-differentiated to macrophage-like cells
- Knock-down reagent: siRNA pool against human genes, 50 nM
- Duration: LPS for 4 h, given about 3 days after siRNA transfection
- Treatment: bacterial LPS (TLR4 ligand), 10 ng/ml
- Read-out: 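TNF firefly reporter luminescence divided by renilla, normalised to the plate median, then turned into a robust z-score for each replicate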
- Scale: TNF reporter robust z-score: higher = stronger TNF reporter response to LPS
- Hit rule: 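Each well counts as active if its z-score is over 2.8 or under -1.5; controls are left without a call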

{"target": "MED8", "TNF reporter robust z-score": -1.48}
{"target": "MED8", "TNF reporter robust z-score": -1.03}
{"target": "MED8", "TNF reporter robust z-score": -1.15}
{"target": "MED8", "TNF reporter robust z-score": -1.14}
{"target": "FANCM", "TNF reporter robust z-score": 2.32}
{"target": "FANCM", "TNF reporter robust z-score": 0.44}
{"target": "FANCM", "TNF reporter robust z-score": 1.86}
{"target": "FANCM", "TNF reporter robust z-score": 2.31}
{"target": "RSF1", "TNF reporter robust z-score": -0.21}
{"target": "RSF1", "TNF reporter robust z-score": 1.48}
{"target": "RSF1", "TNF reporter robust z-score": 0.26}
{"target": "RSF1", "TNF reporter robust z-score": 1.14}

A stretch taken from the entries so far, as a working copy:
{"target": "FANCM", "TNF reporter robust z-score": 2.32}
{"target": "FANCM", "TNF reporter robust z-score": 0.44}
{"target": "FANCM", "TNF reporter robust z-score": 1.86}
{"target": "FANCM", "TNF reporter robust z-score": 2.31}

Continued:
{"target": "UBE2G2", "TNF reporter robust z-score": -0.73}
{"target": "UBE2G2", "TNF reporter robust z-score": -0.98}
{"target": "UBE2G2", "TNF reporter robust z-score": -0.53}
{"target": "UBE2G2", "TNF reporter robust z-score": 1.12}
{"target": "KRTAP1-3", "TNF reporter robust z-score": -0.67}
{"target": "KRTAP1-3", "TNF reporter robust z-score": 0.42}
{"target": "KRTAP1-3", "TNF reporter robust z-score": -0.32}
{"target": "KRTAP1-3", "TNF reporter robust z-score": -0.05}
{"target": "ZDHHC18", "TNF reporter robust z-score": -0.54}
{"target": "ZDHHC18", "TNF reporter robust z-score": -0.18}
{"target": "ZDHHC18", "TNF reporter robust z-score": -0.63}
{"target": "ZDHHC18", "TNF reporter robust z-score": 0.02}
{"target": "RXRB", "TNF reporter robust z-score": -0.95}
{"target": "RXRB", "TNF reporter robust z-score": -0.66}
{"target": "RXRB", "TNF reporter robust z-score": -0.36}
{"target": "RXRB", "TNF reporter robust z-score": 0.42}
{"target": "KIF26B", "TNF reporter robust z-score": "-1.98 (active)"}
{"target": "KIF26B", "TNF reporter robust z-score": -0.75}
{"target": "KIF26B", "TNF reporter robust z-score": -0.92}
{"target": "KIF26B", "TNF reporter robust z-score": -1.03}
